# Assay results as given in PubChem BioAssay AID493014 (National Center for Advancing Translational Sciences (NCATS), 2011).
# Screen size: about 340,000 compounds; about 170 (0.05%) were called active. Inconclusive means that the source gave no clear call. Such entries were picked first, then a sample of the others. The call rests on the fitted dose curve; in most records, active means well fitted inhibition curve with a large enough effect in the signal ratio, with a control signal flat (not every such curve was filed as active); inconclusive means small, poorly fitted or top-dose-only effect, or effect the other way, or a change in a side signal; inactive means flat fitted curve, though single readings scatter; the % refers to the signal ratio. Potencies beside an inconclusive call are fits to weak or partial responses and may not hold up.
# Test: qHTS Assay to Find Inhibitors of Chronic Active B-Cell Receptor Signaling;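 on activity change, negative = inhibition: plate controls were basal doxycycline-induced cells for no effect and cells given 10 µM MG132 for full effect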
# Details: ABC-DLBCL IkBa-CBG/CBR reporter, luminescence ratio (green luciferase fused to IkBa over red control in TMD8 lymphoma cells), 4 h; activity change, negative = inhibition: at 46.1 µM (top of the series)
# Method in brief: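 Concentration-response series (up to 46 uM) were applied to TMD8 dual-reporter cells for 4 h at 37C with doxycycline. Green/red ratio, after filter-overlap correction, defined %Activity; red signal alone was normalised to basal cells and zero luminescence.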
# Potency means the concentration at half of the fitted maximal effect.
Compound,"activity change, negative = inhibition",Potency
O=C(c1cccc(S(=O)(=O)N2CCc3ccccc32)c1)N1CCc2ccccc2C1,inactive,–
O=C(Nc1ccc(N2CCOCC2)cc1)c1ccc2ncsc2c1,–,"inconclusive: 16.4 µM [falling, partial curve]"
CC(C)CCn1c(=O)c2ccccc2n2c(=S)[nH]nc12,inactive,–
CCOc1cccc(NC(=O)C2CC(=O)N(C)C(=Nc3cccc(F)c3)S2)c1 (stereo not drawn),inconclusive: -23.5%,–
COC1CCN(Cc2cn(Cc3ccccc3)nc2-c2cc3ccccc3o2)CC1,–,"inconclusive: 35.5 µM [falling, single point]"
Cc1ccc(CC2SC(=O)NC2=O)cc1Cl (stereo not drawn),inactive,–
Cc1cccc(CN2C(=O)NC(c3ccccc3)(c3ccccc3)C2=O)c1,inactive,–
O=C(c1ccc(Br)cc1)N(Cc1ccco1)C1CCS(=O)(=O)C1 (stereo not drawn),inactive,–
COCCNC(=O)Cn1cnc([N+](=O)[O-])n1,inactive,–
CCC(C)N1C(=O)S/C(=C/c2ccc3c(c2)n(C)c(=O)n3C)C1=O (stereo not drawn),inconclusive: 12.9%,–
Cc1ccc(S(=O)(=O)NC(C)(C)C)cc1C(=O)OC(C)C(=O)NC1CC1 (stereo not drawn),inactive,–
COc1cc2c(cc1OC)C(C)N(C(=O)c1ccc(Br)o1)CC2 (stereo not drawn),inactive,–
CCOc1ccc(NC(=S)NCCCc2ccccc2)cc1,inactive,–
COc1ccc(CCNc2oc(COc3ccc(F)cc3)nc2C#N)cc1,–,"inconclusive: 10.3 µM [falling, partial curve, poor fit]"
COc1ccc(/C=N/NC(=O)CCOc2ccccc2C)cc1OC,inconclusive: -13.6%,–
CCSc1nc2c(c(=O)[nH]c(=O)n2C)n1C/C=C(/C)Cl,inconclusive: 6.01%,–
C/C(=N\NC(=O)c1ccc(N)cc1)C1CC1,–,"inconclusive: 20 µM [falling, partial curve, poor fit]"
Cc1ccc2cccc(NC(=S)NC(=O)c3ccccc3)c2n1,–,"inconclusive: 0.282 µM [falling, full curve]"
CCOC(=O)c1sc2nc(-c3ccccc3)ccc2c1N,inconclusive: 6.86%,–
Cn1nc(CC(=O)NC2CCCCCC2)c2ccccc2c1=O,inactive,–
Cc1c(C)c2cc(Cl)c(OCC(=O)NCCCn3ccnc3)cc2oc1=O,inactive,–

Compound,"activity change, negative = inhibition",Potency
O=C(O)CCc1ccc(-c2ccccc2)o1,–,"inconclusive: 16.4 µM [falling, single point]"
C=CCN1C(=O)C2(NC(=O)c3ccccc3N2)c2ccccc21 (stereo not drawn),–,"inconclusive: 12.6 µM [falling, partial curve, poor fit]"
COc1ccc(NC(=O)CSc2nnc(-c3ccccn3)n2N)c(OC)c1,inconclusive: 2.38%,–
CC1CCc2[nH]c3ccc(C(=O)NCC4CCCO4)cc3c2C1 (stereo not drawn),inconclusive: 8.05%,–
CNc1nc(SCC(=O)Nc2ccc(Cl)c(Cl)c2)nc(N2CCOCC2)n1,inconclusive: 0.581%,–
COc1ccc(NC(=O)CSC2=NCCN2)cc1,inactive,–
CCOc1ccc(CNC(=S)N/N=C/c2ccc(OC)c(OC)c2)cc1,inactive,–
COc1cc(C(=O)Nc2ccc(C(F)(F)F)cc2)ccc1OCC(=O)N1CCOCC1,–,"inconclusive: 10.3 µM [falling, partial curve]"
COC(=O)c1ccc(NC(=S)Nc2ccccc2)cc1,–,"inconclusive: 32.6 µM [rising, partial curve, poor fit]"
O=C1NC(c2ccc(-c3ccccc3[N+](=O)[O-])o2)C(C(=O)c2ccccc2)C(O)(C(F)(F)F)N1 (stereo not drawn),inconclusive: -1.42%,–
CC1CCc2c(sc(N)c2C(=O)OC(C)C)C1 (stereo not drawn),inconclusive: 28.2%,–
Cc1ccc(NC(=O)c2c(C)nc3sc(C(=O)NC4CCCC4)c(N)c3c2-c2ccco2)c(C)c1,inactive,–
N=C1S/C(=C\c2ccco2)C(=O)N1c1nccs1,–,"inconclusive: 5.62 µM [cytotoxic, single point]"
CCOc1ccc(/C=N/NC(=S)NC2CC3CCC2C3)cc1 (stereo not drawn),inactive,–
CN1C(=S)N(c2cccnc2)C(=O)/C1=C\c1ccc(C(C)(C)C)cc1,–,"inconclusive: 28.2 µM [falling, single point]"
CCCCCCn1c(CN2CCN(CCO)CC2)nc2c1c(=O)n(C)c(=O)n2C,inconclusive: 2.92%,–
CCN1C(=O)c2ccc(C(=O)NCc3ccco3)cc2C1=O,inconclusive: 4.6%,–
COc1ccc(CCC(=O)Nc2nnc(C(F)(F)F)s2)cc1,inconclusive: 3.73%,–
COc1ccc(S(=O)(=O)N2CCOCC2)cc1NC(=O)COC(=O)c1ccc([N+](=O)[O-])s1,inactive,–
COc1cc(/C(O)=C(\C#N)c2nc3ccccc3[nH]2)cc(OC)c1OC,inactive,–
COc1cc(-c2nc(-c3ccc4c(c3)-c3ccccc3S4(=O)=O)c(-c3ccccc3)[nH]2)cc(OC)c1OC,–,"inconclusive: 0.58 µM [falling, full curve, poor fit]"

Compound,"activity change, negative = inhibition",Potency
C=CCn1c(SCC(=O)NCCO)nc2sc(C)c(C)c2c1=O,–,"inconclusive: 35.5 µM [falling, single point]"
COc1ccc(NC(=S)N2CCCN(Cc3cccc(Cl)c3)C2)cc1,inactive,–
Cc1ccc(S(=O)(=O)N(C)C)cc1[N+](=O)[O-],inconclusive: -6.04%,–
C=C(C)Cn1c(Sc2nnc(C)s2)nc2c1c(=O)[nH]c(=O)n2C,inactive,–
COc1cc(C2C(C#N)=C(C)NC(C)=C2C#N)cc(OC)c1OC,inconclusive: -7.33%,–
Cc1ccc(S(=O)(=O)N2CCCCC2)cc1NC(=O)Cn1ncc(Cl)c(Cl)c1=O,inconclusive: 8%,–
Cc1c(C(=O)Nc2c(C)n(C)n(-c3ccccc3)c2=O)oc2ccccc12,inconclusive: 14.7%,–
COc1ccc(-c2csc(NS(=O)(=O)c3ccc([N+](=O)[O-])cc3)n2)cc1,inconclusive: 9.21%,–
CC1=NN(Cc2ccccc2)C(=O)C1C(c1ccncc1)C(C#N)C#N (stereo not drawn),inconclusive: -5.53%,–
O=c1oc(-c2ccccc2NS(=O)(=O)c2ccc(F)cc2)nc2ccccc12,inconclusive: 11.1%,–
CN(Cc1ccccc1OCCO)CC1CCCN(CCc2ccc(Cl)cc2)C1 (stereo not drawn),inactive,–
Cc1ccc(OCC(=O)NC(=S)Nc2ccccn2)c(Br)c1,inconclusive: 8.59%,–
COc1ccc(Cl)cc1NC(=S)N(Cc1ccccc1C)CC1CCC(C(=O)O)CC1 (stereo not drawn),inconclusive: 22.4%,–
c1ccc(C2OCC3(CO2)COC(c2ccccc2)OC3)cc1 (stereo not drawn),inconclusive: 5.08%,–
O=C(COc1ccccc1)NCC(=O)N/N=C/c1cc(Br)ccc1OCc1ccccc1,inactive,–
CCC(=O)Nc1c(C#N)c2nc3ccccc3nc2n1-c1ccccc1C,inconclusive: -1.43%,–
O=C(CC(n1cncn1)C(Cl)(Cl)Cl)c1ccc([N+](=O)[O-])cc1 (stereo not drawn),inconclusive: 10.1%,–
CCOC(=O)c1c(S(=O)(=O)N2CCN(c3ccc(F)cc3)CC2)c(C)n(C)c1C,–,"inconclusive: 11.2 µM [falling, single point]"
O=[N+]([O-])c1cccnc1Oc1ccc(C2SCCS2)cc1,inconclusive: -3.49%,–
CCOC(=O)Cc1csc(NC(=O)CSc2nnnn2-c2ccc(F)cc2)n1,inconclusive: -5.39%,–
CCCCCC(=O)NC(=S)NC1C2CC3CC(C2)CC1C3 (stereo not drawn),inactive,–

Compound,"activity change, negative = inhibition",Potency
Cc1ccc(NC(=O)CCC(C(=O)O)N2C(=O)c3ccccc3C2=O)cc1 (stereo not drawn),inactive,–
N#C/C(=C(/O)Cc1cccc2ccccc12)c1nc2ccccc2s1,–,"inconclusive: 1.03 µM [rising, full curve]"
CC[C@]12c3[nH]c4cc(-c5ccco5)ccc4c3CCN1C(=O)[C@@H](CC(=O)NC(C)(C)C)C[C@@H]2C(=O)N1CCN(C(=O)C2CC2)CC1,inactive,–
CCc1nc(N2CCN(c3nc(C)cc(C)n3)CC2)c2oc3ccccc3c2n1,inconclusive: 8.84%,–
CCOc1ccccc1C1C(C(=O)OC)=C(N)OC2=C1C(=O)CCC2 (stereo not drawn),inactive,–
O=C(c1cccc(F)c1)N1CCN(C(=O)c2nn3cccnc3c2Cl)CC1,inconclusive: 0.441%,–
CC(C)N(Cc1ccccc1)S(=O)(=O)N(C)C,inactive,–
COc1ccc(C(=O)CC(=O)C(=O)Nc2ccc(C)c(Cl)c2)cc1,inactive,–
COc1ccccc1C1CC(c2c(-c3ccccc3)c3cc(Cl)ccc3[nH]c2=O)=NN1S(C)(=O)=O (stereo not drawn),inconclusive: -10%,–
O=c1cc(-c2ccccc2)nc(SCc2ccccc2F)[nH]1,inconclusive: 8.02%,–
CC[C@]12c3[nH]c4ccccc4c3CCN1C(=O)C(CC(=O)NCCc1ccccn1)C[C@@H]2C(=O)N1CCN(C(=O)C2CC2)CC1 (stereo partly drawn),inconclusive: 0.938%,–
COc1ccc(NC(=O)CC2C(=O)N(Cc3cccs3)C(=S)N2C(C)C)cc1 (stereo not drawn),inconclusive: -0.111%,–
CC(NC(=O)/C=C/c1ccco1)c1nc2ccccc2n1Cc1cccc(Cl)c1 (stereo not drawn),inactive,–
Cc1nn(Cc2ccccc2Cl)c2sc(C(=O)Nc3nccs3)cc12,inconclusive: -10.3%,–
Cc1ccc(C(=O)N/N=C2\CC3CC=CC23)c(C)c1 (stereo not drawn),–,"inconclusive: 14.1 µM [falling, partial curve, poor fit]"
C=CCNc1nc(-c2ccccc2)nc(-n2ccnc2)n1,inconclusive: -2.01%,–
CC(=O)N1N=C(c2ccncc2)OC12CCCC2,inconclusive: 0.997%,–
Cc1ccc2nc(-c3ccccc3)cc(C(=O)N3CCc4ccccc4C3)c2c1,–,"inconclusive: 11.2 µM [activator, partial curve, poor fit]"
COc1ccc(OCC(O)Cn2c(N)nc3c2c(=O)[nH]c(=O)n3C)cc1 (stereo not drawn),inconclusive: -0.658%,–
C=CCc1c(C)nc(C)nc1N/N=C/c1ccc(N(C)C)cc1,–,"inconclusive: 14.6 µM [falling, partial curve, poor fit]"

# A few values from above.
# activity change, negative = inhibition, `O=c1cc(-c2ccccc2)nc(SCc2ccccc2F)[nH]1` is entered as inconclusive: 8.02%
# activity change, negative = inhibition, `CC(=O)N1N=C(c2ccncc2)OC12CCCC2` is entered as inconclusive: 0.997%
# activity change, negative = inhibition, `COc1ccccc1C1CC(c2c(-c3ccccc3)c3cc(Cl)ccc3[nH]c2=O)=NN1S(C)(=O)=O` (stereo not drawn) is entered as inconclusive: -10%
# activity change, negative = inhibition, `CC[C@]12c3[nH]c4cc(-c5ccco5)ccc4c3CCN1C(=O)[C@@H](CC(=O)NC(C)(C)C)C[C@@H]2C(=O)N1CCN(C(=O)C2CC2)CC1` is entered as inactive
